A: 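Polyketide synthase Pks13, Mycobacterium tuberculosis (UniProt I6X8D2). Enzyme assay of the thioesterase domain of polyketide synthase 13; the read-out is not stated. Tested at 30 µM. The record gives no direction; the compounds picked for IC50 retests had high values, so higher reads as stronger inhibition. About 67,000 compounds were tested under these conditions; 0.46% (about 300) showed 50% or more at least once.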
B: 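Enzyme assay of the cytosolic lysyl-tRNA synthetase in 384-well plates, read by luminescence. Target: Lysine-tRNA ligase, Plasmodium falciparum 3D7 (UniProt Q8IDJ8). Tested at 30 µM. Direction is inferred from only a few compounds that gave an IC50; most scored high, so higher reads as stronger inhibition. Of about 69,000 compounds tested this way, about 49 (0.071%) reached 50% or more in at least one test.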
C: 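Coenzyme A biosynthesis protein CoaBC, Mycobacterium tuberculosis (UniProt P9WNZ1). Enzyme assay of CoaBC with a phosphate dye (Biomol Green) read at 650 nm. Concentration: 30 µM. Higher reads as stronger inhibition, judged from the few compounds that gave an IC50. Most strong results did not repeat in a second test. About 67,000 compounds were tested under these conditions; 0.06% (about 40) showed 50% or more at least once.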

Amino acid sequences for entries named in this document (tags omitted). Residues count along the entry.
UniProt I6X8D2, whole entry: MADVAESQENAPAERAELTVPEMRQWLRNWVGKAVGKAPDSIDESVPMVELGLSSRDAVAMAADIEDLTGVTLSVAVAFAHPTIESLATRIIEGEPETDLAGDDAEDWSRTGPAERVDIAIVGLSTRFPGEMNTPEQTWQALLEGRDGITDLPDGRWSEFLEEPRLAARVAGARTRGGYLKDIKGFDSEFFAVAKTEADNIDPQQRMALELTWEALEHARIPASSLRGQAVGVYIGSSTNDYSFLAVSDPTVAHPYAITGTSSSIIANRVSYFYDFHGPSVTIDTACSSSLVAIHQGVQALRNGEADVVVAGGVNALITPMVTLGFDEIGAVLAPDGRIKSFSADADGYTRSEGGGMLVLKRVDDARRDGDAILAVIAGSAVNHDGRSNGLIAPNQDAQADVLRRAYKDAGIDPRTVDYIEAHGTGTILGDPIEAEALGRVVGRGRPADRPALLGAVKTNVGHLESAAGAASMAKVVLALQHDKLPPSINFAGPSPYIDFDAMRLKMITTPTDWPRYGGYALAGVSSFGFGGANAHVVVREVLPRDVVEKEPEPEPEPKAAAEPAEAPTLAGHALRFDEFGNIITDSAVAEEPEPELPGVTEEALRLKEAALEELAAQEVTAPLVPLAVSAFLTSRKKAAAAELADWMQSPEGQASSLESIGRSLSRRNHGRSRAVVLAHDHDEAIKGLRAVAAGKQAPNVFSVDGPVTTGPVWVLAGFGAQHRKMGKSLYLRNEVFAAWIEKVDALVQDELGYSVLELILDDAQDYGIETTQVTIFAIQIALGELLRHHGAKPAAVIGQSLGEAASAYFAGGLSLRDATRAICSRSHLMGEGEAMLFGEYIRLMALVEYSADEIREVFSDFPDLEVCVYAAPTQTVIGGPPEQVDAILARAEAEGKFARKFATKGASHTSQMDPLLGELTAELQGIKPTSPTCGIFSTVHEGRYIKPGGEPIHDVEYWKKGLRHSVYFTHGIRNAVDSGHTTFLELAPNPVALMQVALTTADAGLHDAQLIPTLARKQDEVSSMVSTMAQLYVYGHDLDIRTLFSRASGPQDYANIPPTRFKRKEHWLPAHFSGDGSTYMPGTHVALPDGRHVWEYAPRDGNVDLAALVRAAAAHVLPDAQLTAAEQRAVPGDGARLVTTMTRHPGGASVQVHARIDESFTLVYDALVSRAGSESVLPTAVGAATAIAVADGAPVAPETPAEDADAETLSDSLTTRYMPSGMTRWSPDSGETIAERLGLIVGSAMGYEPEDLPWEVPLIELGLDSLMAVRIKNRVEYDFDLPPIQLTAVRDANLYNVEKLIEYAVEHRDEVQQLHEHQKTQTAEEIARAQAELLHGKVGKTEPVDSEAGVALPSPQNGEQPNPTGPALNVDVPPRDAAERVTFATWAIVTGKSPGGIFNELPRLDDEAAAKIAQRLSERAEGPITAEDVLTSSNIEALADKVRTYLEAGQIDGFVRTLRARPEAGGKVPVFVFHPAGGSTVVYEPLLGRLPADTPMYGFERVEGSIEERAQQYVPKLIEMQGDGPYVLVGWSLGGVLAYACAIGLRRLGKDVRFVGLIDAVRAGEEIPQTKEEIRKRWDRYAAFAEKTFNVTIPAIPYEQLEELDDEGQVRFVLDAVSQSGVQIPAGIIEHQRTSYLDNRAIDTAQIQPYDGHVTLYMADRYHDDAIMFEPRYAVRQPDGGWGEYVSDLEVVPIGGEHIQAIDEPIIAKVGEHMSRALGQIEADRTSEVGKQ
UniProt Q8IDJ8, 1-583: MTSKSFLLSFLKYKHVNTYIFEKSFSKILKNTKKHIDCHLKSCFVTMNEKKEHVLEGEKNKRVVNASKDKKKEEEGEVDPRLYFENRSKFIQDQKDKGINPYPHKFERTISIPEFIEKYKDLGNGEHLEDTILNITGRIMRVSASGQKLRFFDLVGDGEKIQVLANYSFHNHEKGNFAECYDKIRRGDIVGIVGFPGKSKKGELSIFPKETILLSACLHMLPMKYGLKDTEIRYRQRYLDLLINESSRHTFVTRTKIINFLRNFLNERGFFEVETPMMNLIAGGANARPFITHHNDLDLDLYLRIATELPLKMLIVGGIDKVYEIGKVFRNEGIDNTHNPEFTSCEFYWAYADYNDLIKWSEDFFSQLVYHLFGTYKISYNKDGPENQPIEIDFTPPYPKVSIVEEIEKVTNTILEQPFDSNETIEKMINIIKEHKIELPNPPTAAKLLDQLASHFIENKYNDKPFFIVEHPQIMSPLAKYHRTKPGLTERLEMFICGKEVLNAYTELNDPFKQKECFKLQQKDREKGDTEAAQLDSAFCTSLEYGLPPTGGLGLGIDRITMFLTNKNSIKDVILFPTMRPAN
UniProt P9WNZ1, whole entry: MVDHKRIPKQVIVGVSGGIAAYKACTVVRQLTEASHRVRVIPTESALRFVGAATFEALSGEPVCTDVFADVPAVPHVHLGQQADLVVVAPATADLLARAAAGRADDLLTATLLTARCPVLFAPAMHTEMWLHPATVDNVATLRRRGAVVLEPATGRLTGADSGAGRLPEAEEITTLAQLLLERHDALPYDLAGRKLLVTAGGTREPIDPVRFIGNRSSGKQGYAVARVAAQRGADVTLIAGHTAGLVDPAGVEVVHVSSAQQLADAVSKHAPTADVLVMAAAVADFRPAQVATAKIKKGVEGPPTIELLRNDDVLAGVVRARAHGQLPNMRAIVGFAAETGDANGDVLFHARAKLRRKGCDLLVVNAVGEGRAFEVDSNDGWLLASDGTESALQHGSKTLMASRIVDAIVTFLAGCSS

Each number is a percent effect as filed.
How 0% and 100% were set is not recorded. Most values in the screen are low, and negative values occur.
The compounds are a random part of those screened.
Two or more numbers in one place are separate tests of the same structure; such repeats can differ widely.
A dash means the value is not listed here; it may have been measured.

SMILES,A,B,C
Fc1cc(Cl)cnc1N1CCCC(c2nccn2Cc2ccncc2)C1 (stereo unspecified),-4.289,8.892,2.273
Cn1cnc2c1C(COCC1CCOCC1)CN(C(=O)c1ccco1)C2 (stereo unspecified),-,-2.392,0.5076
CC(C)c1nc2n(n1)CC(NCC(=O)N(C)Cc1cccs1)CC2 (stereo unspecified),-,0.2067,4.701
Cc1nc(NCC23CCCN2CCC3)cc(C2CCCNC2)n1 (stereo unspecified),-19.17,10.39,-18.65
CCCc1cc(CNC(=O)Cc2cc(C)no2)on1,-7.358,1.228,-2.948
CN1CCC(N(C)C(=O)c2cnn(-c3ccccc3Br)c2N)CC1,8.694,3.587,-2.67
Cc1noc([C@H]2C[C@@H]3CCN(CC4CC4)C[C@H]3O2)n1,-9.254,-1.213,-1.901
Cc1cnn(CC2CCCN2Cc2nc3ccccc3c(=O)[nH]2)c1 (stereo unspecified),-2.872,3.796,2.955
O=C(NC1CC1)[C@@H]1CCO[C@@H]2CCN(C3CCCC3)C[C@H]21,-29.98,5.28,7.166
O=C(c1ccnnc1)N1CCC2(CC1)CCN(C(=O)c1cccnc1)C2,31,3.197,2.469
CCCn1ncc(C2CC(=O)NCc3nc4sc(C)cn4c32)c1C (stereo unspecified),-31.02,4.257,3.421
O=C(Cc1csc(Cc2ccccn2)n1)NCCCN1CCCC1=O,2.407,-8.578,2.433
Cc1cccc(COC[C@]23COC[C@H]2CN(C(=O)c2ccsc2)C3)n1,-8.893,3.625,3.52
O=C1NCC2CN(Cc3ccccc3OCc3ccccn3)CCN12 (stereo unspecified),-12.62,0.1777,-4.133
O=C(c1ccnnc1)N1C[C@@H]2COC[C@]2(COCC2CC2)C1,-17.08,-0.2697,7.505
COC1CCCN(Cc2nc(Cc3ccccc3F)no2)C1 (stereo unspecified),-4.462,-2.107,0.4386
COc1cccc(-c2cc(C(=O)NCCCn3cnnc3)[nH]n2)c1,41.28,2.85,2.785
Cc1nc(C2CCNC2)nc2c1CCC(=O)N2C (stereo unspecified),0.909,-1.195,-4.993
N#Cc1ccc(NCCCN2C(=O)COc3ccccc32)nc1,-14.19,-2.017,3.64
COc1cccc(CN2CCC(c3nn(CCN)c4nccnc34)C2)c1 (stereo unspecified),-22.45,-1.483,2.354
CCCOc1ccc2c(c1)OCC(CNC1CCc3ncnn3C1)=C2 (stereo unspecified),1.47,11.51,6.884
CCn1cc(S(=O)(=O)N2CCCSc3ccccc32)cn1,-1.933,5.229,-28.29
CC/C=C(/C)C(=O)NS(=O)(=O)c1ccc(C#N)cc1C(F)(F)F,-7.916,-2.865,-1.399
O=C(c1ccc[nH]1)N1C[C@H]2CN(Cc3cccc(F)c3)C(=O)[C@H]2C1,-21.99,3.667,8.74
Cc1ccsc1CCNC(C)C(=O)NC1CCCC1 (stereo unspecified),-32.03,1.357,3.902
CC(CCc1ccccc1)NC(=O)Nc1cnn(CC(N)=O)c1 (stereo unspecified),-8.621,2.541,10.44
CC(C)c1ncc(CN2CCCC2c2[nH]ncc2C(=O)N(C)C)cn1 (stereo unspecified),1.781,4.693,0.4751
Cc1c[nH]c(C2COCCN2C(=O)c2ccc(=O)[nH]n2)n1 (stereo unspecified),-5.901,-1.337,8.673
O=C1CC(N(C(=O)c2csc(-c3ccccc3)n2)C2CC2)C(=O)N1 (stereo unspecified),-1.193,-2.979,-
CC(=O)NCCC(=O)NCCCOc1c(C)cccc1C,-15.14,8.704,9.328
COCCNc1ncc(-c2onc(C)c2C)c(-c2ccco2)n1,15.47,-0.2705,1.675
CC1CC2(CCN(C(=O)c3csnn3)CC2)c2ccccc21 (stereo unspecified),-4.813,2.711,3.704
CCCc1cc(C(=O)N2CCC3(CCCN(CCO)C3=O)C2)cs1 (stereo unspecified),-0.9429,-1.517,9.804
COCC1CN(C(=O)c2ccccn2)Cc2nccn2C1 (stereo unspecified),-18.87,1.816,3.083
CN(C)Cc1cnc2n1CCN(C(=O)C1CC=CC1)CC2,-5.835,7.613,4
c1cc(NC2CC3(CCN(Cc4cc[nH]n4)C3)C2)ncn1 (stereo unspecified),-68.77,-0.5741,1.944
CCOc1ccccc1N(C)C(=O)c1ccc(Cl)cn1,-31.29,-5.677,0.4016
CCN(C)CC1CCN(C(=O)Nc2ccc(-c3cc[nH]n3)cc2)C1 (stereo unspecified),-13.76,-0.4425,-13.71
COC(=O)CNC(=O)CCc1cc(Cl)cs1,-,7.571,0.8264
COCC[C@]1(O)CCN(C(=O)C2CCN(C3CCCC3)CC2)C[C@H]1C,-2.499,5.133,-1.555
O=C(NCC1CC1)[C@@H]1C[C@@H]2CCN(Cc3ccccc3)C[C@H]2O1,-20.24,2.618,0.3699
OCc1ccc(CN2CCC(n3cc(-c4ccsc4)nn3)CC2)o1,-23.52,1.01,-11.21
Cc1ncc(C(=O)N2CCCN(Cc3ccccc3F)CC2)c(O)n1,-3.798,5.176,4.071
CCc1nc(C2CCCN2CC(=O)Nc2nnc(C)s2)no1 (stereo unspecified),-14.17,0.9633,5.806
c1cnn(CC2CCCCN2Cc2nc(-c3ccoc3)no2)c1 (stereo unspecified),-9.395,0.6908,0.7833
c1cc(C2CC2)n2cnc(C3CN(Cc4ccncc4)CCO3)c2c1 (stereo unspecified),-37.46,8.189,-
Cc1c(C(=O)N2CCCC(C(=O)c3nccn3C)C2)c[nH]c(=O)c1C#N (stereo unspecified),10.65,6.394,6.582
CC(C)c1nc(CNC2CCN(C(=O)OC(C)(C)C)CC2)cs1,-20.46,6.907,20.67 and 7.732
Cc1cc(C)cc(OCCN(C)Cc2ccc(S(=O)(=O)N(C)C)o2)c1,6.887,0.8516,4.612
OCCOc1ccc(NCc2cccc3[nH]ccc23)cn1,10.97,-0.697,1.22
CCC(CC)c1cc(CNC(=O)N2CCC(CO)CC2)on1,-12.71,-2.925,-3.433
CCc1ccccc1CN1CC[C@@H](NC(=O)c2cccnc2)[C@H](O)C1,-27.91,2.169,-2.11
CC(Cn1cccn1)NC(=O)N(C)Cc1ccsc1 (stereo unspecified),8.066,3.095,6.456
CN(Cc1cc(-c2cccnc2)no1)C(=O)C1CCCN1S(C)(=O)=O (stereo unspecified),-38.9,4.1,-
CCc1nc(C)c(C(=O)NCCNc2ncccn2)s1,-19.09,4.524,-0.1669
CCc1cc(CN(C)Cc2nc(-c3sccc3C)oc2C)on1,-6.073,3.871,2.828
c1ccc(OCCN2CCCCC2Cn2cncn2)cc1 (stereo unspecified),-7.433,0.3741,11.53
Cn1cc(NC(=O)c2ccccn2)cc(Br)c1=O,-29.81,19.16,7.445
CN(C)C(=O)CNS(=O)(=O)c1cc(Br)ccc1F,-8.822,6.177,3.823
CN1CC(C)(C)CN(C(=O)CCc2ccccc2)CC1=O,-19.33,7.388,0
NC(=O)c1nc2c(s1)CCN(Cc1ccccc1)CC2,-10.2,1.93,-3.333
Cc1nc(N)sc1C(=O)N1CCC(C(O)Cc2ccccc2)CC1 (stereo unspecified),-,-0.09314,0
CNC(=O)C1CCCCN1C(=O)c1n[nH]c(=O)c2ccccc12 (stereo unspecified),-11.12,3.584,-2.767
CC(C)c1noc(CS(=O)(=O)CC(=O)NCC(F)(F)F)n1,-3.8,2.773,4.545
CCN1CCc2nc(N3CCOCC3)nc(NC(C)C)c2C1,1.85,0.9762,3.337
CCOc1cc(=O)n2c(c1C(=O)OCc1ccc(F)cc1)CCCC2,18.87,2.966,0.1215

The first 5 entries again:

{"smiles": "Fc1cc(Cl)cnc1N1CCCC(c2nccn2Cc2ccncc2)C1", "stereo": "stereo unspecified", "A": -4.289, "B": 8.892, "C": 2.273}
{"smiles": "Cn1cnc2c1C(COCC1CCOCC1)CN(C(=O)c1ccco1)C2", "stereo": "stereo unspecified", "B": -2.392, "C": 0.5076}
{"smiles": "CC(C)c1nc2n(n1)CC(NCC(=O)N(C)Cc1cccs1)CC2", "stereo": "stereo unspecified", "B": 0.2067, "C": 4.701}
{"smiles": "Cc1nc(NCC23CCCN2CCC3)cc(C2CCCNC2)n1", "stereo": "stereo unspecified", "A": -19.17, "B": 10.39, "C": -18.65}
{"smiles": "CCCc1cc(CNC(=O)Cc2cc(C)no2)on1", "A": -7.358, "B": 1.228, "C": -2.948}

Data taken from ChEMBL document CHEMBL3988442, “University of Dundee, Small-Polar-MMV Screening Library” (2021).